Data source: PubChem BioAssay AID652243 (Drosophila RNAi Screening Center, 2013)
The deposit covers about 24,000 reagents; this is a random part of those that have a named target and a result. Over the whole deposit, 246 (1%) got an active call. 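Plates not normalised; calls are printed but the firefly/Renilla ratio behind them is not deposited; fold cut for lowering reported inconsistently.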 Raw values vary from plate to plate and are shown uncorrected. Entries without a mark were called inactive. Names joined by + are all predicted targets of the reagent. Not stated in the record: the amount of reagent.

Aim: 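Fly genes required for human androgen receptor driven transcription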 (primary screen)
System: Drosophila S2R+ cells
Reagents: long dsRNA against Drosophila genes
Time to read-out: 72 h (48 h, then 24 h hormone)
Conditions: synthetic androgen R1881 at 10 nM for 24 h
Read-out: 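Per-well raw luminescence of the androgen-driven firefly reporter and of the Renilla control, two replicates each, without normalisation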
Scale: firefly reporter light: higher = more light from androgen-responsive reporter; Renilla control light: higher = more constitutive control signal (cell number, transfection)
Active means: 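Hit when the log firefly-to-Renilla ratio dropped or increased by a fixed fold versus the mean of GFP or LacZ controls across duplicate plates; lowering cut given as 1.5 and as 3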
Meaning of the calls: active = hit: reporter lowered or raised; inactive = no hit

Against CG30001 [DRSC05191] the deposit lists firefly reporter light, replicate 1 = 2.15e5; firefly reporter light, replicate 2 = 2.04e5; Renilla control light, replicate 1 = 6.03e5; Renilla control light, replicate 2 = 5.13e5.
For Osi23 [DRSC15074], the values are firefly reporter light, replicate 1 = 2.25e5; firefly reporter light, replicate 2 = 2.83e5; Renilla control light, replicate 1 = 2.60e6; Renilla control light, replicate 2 = 2.51e6.
CG34296 [DRSC38809] gave firefly reporter light, replicate 1 = 1.23e6; firefly reporter light, replicate 2 = 9.77e5; Renilla control light, replicate 1 = 2.24e6; Renilla control light, replicate 2 = 1.74e6.
After knock-down of CG17190 [DRSC15184], the record shows firefly reporter light, replicate 1 = 2.49e5; firefly reporter light, replicate 2 = 2.41e5; Renilla control light, replicate 1 = 2.70e6; Renilla control light, replicate 2 = 3.39e6.
Silencing of elgi [DRSC10242] resulted in: firefly reporter light, replicate 1 = 31466; firefly reporter light, replicate 2 = 52751; Renilla control light, replicate 1 = 3.40e5; Renilla control light, replicate 2 = 2.91e5.
elgi [DRSC29665] scored firefly reporter light, replicate 1 = 2.33e5; firefly reporter light, replicate 2 = 4.72e5; Renilla control light, replicate 1 = 4.72e5; Renilla control light, replicate 2 = 4.72e5.
Against CG31259 [DRSC14366], the entry reads firefly reporter light, replicate 1 = 1.12e5; firefly reporter light, replicate 2 = 68290; Renilla control light, replicate 1 = 2.17e6; Renilla control light, replicate 2 = 1.47e6.
With knock-down of CG42329 [DRSC00373], the screen gave firefly reporter light, replicate 1 = 1.24e5; firefly reporter light, replicate 2 = 1.23e5; Renilla control light, replicate 1 = 8.10e5; Renilla control light, replicate 2 = 9.68e5.
Knock-down of CG42329 [DRSC00682] resulted in: firefly reporter light, replicate 1 = 1.29e5; firefly reporter light, replicate 2 = 70138; Renilla control light, replicate 1 = 7.43e5; Renilla control light, replicate 2 = 7.90e5.
With knock-down of Gr32a [DRSC02400], the record shows firefly reporter light, replicate 1 = 2.05e5; firefly reporter light, replicate 2 = 3.05e5; Renilla control light, replicate 1 = 2.13e6; Renilla control light, replicate 2 = 2.32e6.
Knock-down of Elk [DRSC07608] resulted in: firefly reporter light, replicate 1 = 9.42e5; firefly reporter light, replicate 2 = 1.02e6; Renilla control light, replicate 1 = 2.29e6; Renilla control light, replicate 2 = 2.15e6.
For ND-AGGG + CG40472 [DRSC37805], the entry reads firefly reporter light, replicate 1 = 8.48e5; firefly reporter light, replicate 2 = 8.65e5; Renilla control light, replicate 1 = 1.96e6; Renilla control light, replicate 2 = 2.20e6.
Against reb [DRSC06308], the values are firefly reporter light, replicate 1 = 3.47e5; firefly reporter light, replicate 2 = 2.45e5; Renilla control light, replicate 1 = 1.92e6; Renilla control light, replicate 2 = 1.83e6.
Against CG31522 [DRSC12005], the values are firefly reporter light, replicate 1 = 2.82e5; firefly reporter light, replicate 2 = 3.16e5; Renilla control light, replicate 1 = 5.68e5; Renilla control light, replicate 2 = 6.87e5.
For CG31522 [DRSC29792], the values are firefly reporter light, replicate 1 = 5.67e5; firefly reporter light, replicate 2 = 4.00e5; Renilla control light, replicate 1 = 1.12e6; Renilla control light, replicate 2 = 1.15e6.
Against Exd2 [DRSC16105], the entry reads firefly reporter light, replicate 1 = 1.42e5; firefly reporter light, replicate 2 = 1.99e5; Renilla control light, replicate 1 = 2.73e6; Renilla control light, replicate 2 = 3.10e6.
After knock-down of Exd2 [DRSC25938], the screen gave firefly reporter light, replicate 1 = 3.33e5; firefly reporter light, replicate 2 = 2.55e5; Renilla control light, replicate 1 = 1.00e6; Renilla control light, replicate 2 = 8.39e5.
Silencing of CG31637 [DRSC02270] gave: firefly reporter light, replicate 1 = 1.01e6; firefly reporter light, replicate 2 = 1.25e6; Renilla control light, replicate 1 = 2.04e6; Renilla control light, replicate 2 = 2.00e6.
With knock-down of CG31637 [DRSC03263] the results were firefly reporter light, replicate 1 = 85630; firefly reporter light, replicate 2 = 98850; Renilla control light, replicate 1 = 9.96e5; Renilla control light, replicate 2 = 8.85e5.
Depletion of CG31637 [DRSC25193] gave: firefly reporter light, replicate 1 = 9.18e5; firefly reporter light, replicate 2 = 9.97e5; Renilla control light, replicate 1 = 1.09e6; Renilla control light, replicate 2 = 8.91e5.
Knock-down of Patronin [DRSC06756] resulted in: firefly reporter light, replicate 1 = 55094; firefly reporter light, replicate 2 = 63914; Renilla control light, replicate 1 = 8.91e5; Renilla control light, replicate 2 = 8.91e5.
After knock-down of Patronin [DRSC06757], the screen gave firefly reporter light, replicate 1 = 67681; firefly reporter light, replicate 2 = 92198; Renilla control light, replicate 1 = 1.24e6; Renilla control light, replicate 2 = 1.24e6.
Patronin [DRSC06994] showed firefly reporter light, replicate 1 = 71297; firefly reporter light, replicate 2 = 64135; Renilla control light, replicate 1 = 1.16e6; Renilla control light, replicate 2 = 1.16e6.

Quoted from the listing for reference:
Elk [DRSC07608]: firefly reporter light, replicate 1 = 9.42e5; firefly reporter light, replicate 2 = 1.02e6; Renilla control light, replicate 1 = 2.29e6; Renilla control light, replicate 2 = 2.15e6
ND-AGGG + CG40472 [DRSC37805]: firefly reporter light, replicate 1 = 8.48e5; firefly reporter light, replicate 2 = 8.65e5; Renilla control light, replicate 1 = 1.96e6; Renilla control light, replicate 2 = 2.20e6
reb [DRSC06308]: firefly reporter light, replicate 1 = 3.47e5; firefly reporter light, replicate 2 = 2.45e5; Renilla control light, replicate 1 = 1.92e6; Renilla control light, replicate 2 = 1.83e6
CG31522 [DRSC12005]: firefly reporter light, replicate 1 = 2.82e5; firefly reporter light, replicate 2 = 3.16e5; Renilla control light, replicate 1 = 5.68e5; Renilla control light, replicate 2 = 6.87e5
